Assay results: publication PMC4107866
These are yes or no findings as the source states them, for the method shown. In cells and extracts the contact can be indirect. Binding calls can cover weak binding; strength is not graded here. Tags and fused reporters may be left off the sequences shown.

Chains of the proteins cited; added tags and fusions are not shown. Lines headed by an entry give the natural chain unless they say otherwise; changes in a name come on top.
UniProt Q9H0C5: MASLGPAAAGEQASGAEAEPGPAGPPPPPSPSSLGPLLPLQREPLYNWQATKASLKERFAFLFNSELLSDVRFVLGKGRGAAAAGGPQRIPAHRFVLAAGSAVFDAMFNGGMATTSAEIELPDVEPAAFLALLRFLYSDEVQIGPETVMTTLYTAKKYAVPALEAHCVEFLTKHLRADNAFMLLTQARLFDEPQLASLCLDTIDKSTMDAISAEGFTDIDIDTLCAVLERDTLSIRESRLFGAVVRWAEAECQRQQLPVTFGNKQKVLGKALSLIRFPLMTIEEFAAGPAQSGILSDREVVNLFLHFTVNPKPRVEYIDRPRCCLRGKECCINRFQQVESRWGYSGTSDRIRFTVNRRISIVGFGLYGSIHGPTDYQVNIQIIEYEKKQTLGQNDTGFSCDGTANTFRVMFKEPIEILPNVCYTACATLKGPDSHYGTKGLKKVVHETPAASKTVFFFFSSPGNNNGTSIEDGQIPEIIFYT

Assays:
Assay in all cases: co-IP; HEK293 cells co-transfected with tagged proteins (FLAG-Cul3, MYC-BTB proteins, HA-CLWs); lysates in RIPA buffer, primary antibody then protein A-Sepharose, 1 hr each at 4°C, two washes with RIPA; immunoblot
[1] = molecular target: MYC-Ctb73ΔBTB (human) (UniProt Q9H0C5)
[2] = molecular target: MYC-Ctb73 deletion mutant without the BACK domain (human) (UniProt Q9H0C5)
[3] = molecular target: MYC-Ctb73 deletion mutant without the Kelch domain (human) (UniProt Q9H0C5)

- binding [1]: binds
- binding [2]: binds
- binding [3]: binds
B1: HA-LRR5 (fibromodulin) (protein, UniProt Q06828 19-376)
chain: QYEDDPHWWFHYLRSQQSTYYDPYDPYPYETYEPYPYGVDEGPAYTYGSPSPPDPRDCPQECDCPPNFPTAMYCDNRNLKYLPFVPSRMKYVYFQNNQITSIQEGVFDNATGLLWIALHGNQITSDKVGRKVFSKLRHLERLYLDHNNLTRMPGPLPRSLRELHLDHNQISRVPNNALEGLENLTALYLQHNEIQEVGSSMRGLRSLILLDLSYNHLRKVPDGLPSALEQLYMEHNNVYTVPDSYFRGAPKLLYVRLSHNSLTNNGLASNTFNSSSLLELDLSYNQLQKIPPVNTNLENLYLQGNRINEFSISSFCTVVDVVNFSKLQVLRLDGNEIKRSAMPADAPLCLRLASLIEI
